Reference: paper PMC4316587
No constants are given. Whether binding was seen depends on the method and setting. For part of these data: In cells and extracts the contact can be indirect. Some binding calls cover weakened binding; strength is not graded here.

Protein sequences, listed by entry. Tags and fused reporters are not part of them. Residues count along the entry.
UniProt P07237, residues 18-508: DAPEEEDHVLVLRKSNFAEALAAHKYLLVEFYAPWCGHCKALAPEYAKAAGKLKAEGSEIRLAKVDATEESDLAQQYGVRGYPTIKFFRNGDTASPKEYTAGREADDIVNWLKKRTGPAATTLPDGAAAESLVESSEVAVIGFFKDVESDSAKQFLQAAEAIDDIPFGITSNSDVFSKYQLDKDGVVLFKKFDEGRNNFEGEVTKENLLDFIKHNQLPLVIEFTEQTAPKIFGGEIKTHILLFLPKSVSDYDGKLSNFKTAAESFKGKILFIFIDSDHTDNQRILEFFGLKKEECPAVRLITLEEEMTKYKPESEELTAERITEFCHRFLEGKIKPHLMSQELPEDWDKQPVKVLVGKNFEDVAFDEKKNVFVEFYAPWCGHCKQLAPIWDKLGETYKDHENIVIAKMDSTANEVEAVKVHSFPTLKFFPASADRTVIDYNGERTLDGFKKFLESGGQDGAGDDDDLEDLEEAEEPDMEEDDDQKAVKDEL

How the values were obtained:
[1] = biological target: CRT-GFP (green fluorescent protein tagged calreticulin), purified from bacteria (UniProt P27797); experiment: FRET or BRET; in vitro; CRT-GFP donor and mCherry-tagged acceptor both at 12 μM; 50 mM HEPES pH 7.2, 100 mM KCl, 2 mM CaCl2, EGTA added to give 8 to 2,000 μM free Ca2+; ratio of emission at 630 nm and 520 nm, excited at 485 nm; both purified
[2] = biological target: CRT-GFP fusion protein, expressed in cells (UniProt P27797); experiment: FRET or BRET; FLIM-FRET (GFP donor lifetime) in living transfected AR42j pancreatic acinar cells, untreated or treated with cholecystokinin (CCK, 10 μM)
[3] = biological target: CRT-GFP fusion protein, expressed in cells (UniProt P27797); experiment: FRET or BRET; FLIM-FRET (GFP donor lifetime) in living transfected COS7 cells, untreated or treated with thapsigargin to deplete ER calcium; association also seen in DTT-treated cells (Figure S4)

binding [1]	binding [2]	binding [3]	Substance
binds			PDI1A-mCherry (monomeric Cherry tagged protein disulfide isomerase 1A), purified from bacteria (from UniProt P07237 18-508) (enzyme)
	binds	binds	PDI1A-mCherry, ER-localized, expressed in cells (from UniProt P07237 18-508) (enzyme)
